This note sets out measurements from the supplement of paper PMC8256030.

In assay [1] the test system is SARS-CoV-2 -1 PRF reporter mCherry-FSE-GFP(-1). Kind of assay: mCherry (red) intensity as percent of control; higher = higher upstream reporter expression. Conditions: 10 µM; 24 h; HEK293T.
Assay [2] has the same test system. Kind of assay: percent effect, decrease of GFP/mCherry ratio (-1 PRF reporter) relative to controls; higher = stronger frameshift inhibition. As to conditions: 10 µM; 24 h; HEK293T.
For assay [3], the system named is HEK293T. Description: percent viability (nuclei count) relative to control; higher = more viable cells. Conditions: 10 µM; 24 h.

Values joined by “and” are separate entries in the source; they are usually repeats but may differ in a detail not shown here. Equal entries are not always repeated. Structures can show the parent of a compound that is named as a salt. Some of the results follow. Repeats in this data set agree poorly, so a single value says little.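 HEK293T cells were given each compound shortly before transfection with a reporter in which red mCherry is followed by the SARS-CoV-2 frameshift element and then GFP in the −1 frame, so GFP appears only after frameshifting.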

In assay [1], `C[N+](C)(C)NCCC(=O)[O-]` [meldonium] had a mCherry of 65.5%. For the same molecule, the percent effect in assay [2] was found to be 1.78%.

`CC(C)NCC(O)c1cc(O)cc(O)c1` (configuration not stated) [orciprenaline]: in assay [1], the mCherry is 81.8%. In assay [2], the percent effect is -3.27%.

In turn, `CO[C@H]1/C=C/O[C@@]2(C)Oc3c(C)c(O)c4c(O)c(c(/C=N/N5CCN(C6CCCC6)CC5)c(O)c4c3C2=O)NC(=O)/C(C)=C\C=C\[C@H](C)[C@H](O)[C@@H](C)[C@@H](O)[C@@H](C)[C@H](OC(C)=O)[C@@H]1C` [Priftin] yielded a mCherry in assay [1] of 94.7%. Moreover, the percent effect in assay [2] came out at 0.362%.

For `Oc1ccc(Nc2ccnc3cc(Cl)ccc23)cc1CN1CCCC1` [amopyroquine], the mCherry in assay [1] was determined as 34.4%. The percent effect in assay [2] came to 3.14%.

Take `CCCCCc1ccc(C)cc1O` [amylmetacresol]: the mCherry in assay [1] turned out to be 117%. For the same molecule, the percent effect in assay [2] was -9.49%.

Molecule `CCCCNC(=O)c1ccc(Cl)cc1O` [buclosamide] returned a mCherry in assay [1] of 96.2%. In assay [2], the percent effect was -3.97%.

`O=C(NCc1ccccc1)OCCO` [buramate] gave a mCherry in assay [1] of 104%. Moreover, in assay [2], the percent effect is -1.87%.

As to `NCCCC[C@H](N[C@@H](CCc1ccccc1)C(=O)O)C(=O)N1CCC[C@H]1C(=O)O` [Lisinopril], the mCherry in assay [1] was determined as 69.9%. Also, the percent effect in assay [2] was -3.75%.

`O=C(O)c1cc2cc(Cc3cccnc3)ccc2o1` [furegrelate]: in assay [1], the mCherry amounted to 117%. The percent effect in assay [2] is -4.49%.

For the molecule `Clc1cccc(Cl)c1NC1=NCCN1` [Clonidine·HCl], in assay [1], the mCherry came to 89.8%. For the same molecule, the percent effect in assay [2] is 1.91%.

In turn, `CCOC(=O)c1ccc(OC(=O)CCCCCNC(=N)N)cc1` [gabexate] gave a mCherry in assay [1] of 97.3%. Further, the percent effect in assay [2] was -1.35%.

As for `C[C@H]1[C@H](NC(=O)/C(=N\OC(C)(C)C(=O)O)c2csc(N)n2)C(=O)N1S(=O)(=O)O`, in assay [1], the mCherry worked out at 99.9%. For the same molecule, the percent effect in assay [2] was found to be 0.116%.

On to `CCOc1ccc2nc3cc(N)ccc3c(N)c2c1`, for which the mCherry in assay [1] came out at 87.1%. Further, the percent effect in assay [2] was -8.13%.

`O=C1c2cc(Cl)ccc2OC2CCON12` (configuration not stated) [seclazone] had a mCherry in assay [1] of 107%. In assay [2], the percent effect came to 0.12%.

The molecule `COc1cccc(OC)c1C(=O)N[C@@H]1C(=O)N2[C@@H]1SC(C)(C)[C@@H]2C(=O)O` yielded a mCherry in assay [1] of 106%. Also, the percent effect in assay [2] is -8.06%.

In the case of `COC(F)(F)C(Cl)Cl` [methoxyflurane], the mCherry in assay [1] was 108%. In assay [2], the percent effect was determined as 0.00952%.

`CCC1=C(C)CN(C(=O)NCCc2ccc(S(=O)(=O)NC(=O)N[C@H]3CC[C@H](C)CC3)cc2)C1=O` [glimepiride] registered a mCherry in assay [1] of 104%. For the same molecule, the percent effect in assay [2] was 0.486%.

Molecule `C[N+](C)(C)[C@@H](Cc1c[nH]c(=S)[nH]1)C(=O)[O-]` [Ergothioneine] displayed a mCherry in assay [1] of 99.4%. Besides, the percent effect in assay [2] is 2.4%.

In assay [1], `S=C1NCCC(COc2ccccc2)O1` (configuration not stated) [tifemoxone] showed a mCherry of 96.9%. Moreover, the percent effect in assay [2] was -3.94%.

In turn, `Cc1cn([C@H]2C[C@H](F)[C@@H](CO)O2)c(=O)[nH]c1=O` [alovudine] returned a mCherry in assay [1] of 58.2%. In assay [2], the percent effect worked out at 15.1%.

Turning to `C[C@@H](O[C@H]1OCCN(Cc2n[nH]c(=O)[nH]2)[C@H]1c1ccc(F)cc1)c1cc(C(F)(F)F)cc(C(F)(F)F)c1` [Aprepitant], in assay [1], the mCherry is 127% and 107%. For the same molecule, the percent effect in assay [2] was -2.35% and -2.85%.

In assay [1], `CN(C)[C@@H]1C(=O)C(C(N)=O)=C(O)[C@@]2(O)C(=O)C3=C(O)c4c(O)ccc(Cl)c4[C@@H](O)[C@H]3C[C@@H]12` [Demeclocycline, Declomycin] displayed a mCherry of 63.5%. Besides, in assay [2], the percent effect was found to be 4.08%.

Take `COc1ccc2cc(CCC(C)=O)ccc2c1` [nabumetone]: the mCherry in assay [1] is 76.2% and 90.3%. Besides, in assay [2], the percent effect is -3.18% and -5.83%.

The molecule `CC(=O)OCC(=O)[C@@]1(O)CC[C@H]2[C@@H]3CCC4=CC(=O)CC[C@]4(C)C3=CC[C@@]21C` [anecortave] returned a mCherry in assay [1] of 74.7%. In addition, the percent effect in assay [2] was -2.97%.

On to `CN1CCCCC1CCN1c2ccccc2Sc2ccc(S(C)(=O)=O)cc21` (configuration not stated) [sulforidazine], for which, in assay [1], the mCherry turned out to be 81%. Moreover, the percent effect in assay [2] is -1.33%.

Molecule `CN1CCCC(n2nc(Cc3ccc(Cl)cc3)c3ccccc3c2=O)CC1` (configuration not stated) [azelastine] returned a mCherry in assay [1] of 99.1%. The percent effect in assay [2] came to 0.0404%.

In assay [1], `CCC(C(=O)OCCOCCN(CC)CC)c1ccccc1` (configuration not stated) [butamirate] had a mCherry of 86.8%. In assay [2], the percent effect is -1.59%.

As to `C#CCN[C@@H]1CCc2ccccc21` [rasagiline], in assay [1], the mCherry is 101%. Also, the percent effect in assay [2] is -1.79%.

For the molecule `NC(=NCCCCCCN=C(N)N=C(N)Nc1ccc(Cl)cc1)N=C(N)Nc1ccc(Cl)cc1`, the mCherry in assay [1] worked out at 95.2%. Moreover, in assay [2], the percent effect worked out at 0.606%.

`CN(CCOP(=O)(O)O)C(=N)N` [creatinolfosfate] displayed a mCherry in assay [1] of 114%. The percent effect in assay [2] is -1.37%.

In turn, `CCCCC(C)(O)C/C=C/[C@H]1[C@H](O)CC(=O)[C@@H]1CCCCCCC(=O)OC` (mixture of isomers) [Misoprostol] returned a mCherry in assay [1] of 58.4%. In assay [2], the percent effect was -6.57%.

As for `CCc1cccc2c3c([nH]c12)C(CC)(CC(=O)O)OCC3` (configuration not stated) [etodolac], the mCherry in assay [1] was found to be 125%. The percent effect in assay [2] is -7%.

In assay [1], `CCN(CC)CCCC(C)Nc1ccnc2cc(Cl)ccc12` (configuration not stated) [chloroquine] had a mCherry of 68%. Further, the percent effect in assay [2] is -3.04%.

Take `C[C@@H]1C[C@H]2[C@@H]3CCC4=CC(=O)C=C[C@]4(C)[C@@]3(Cl)[C@@H](O)C[C@]2(C)[C@@]1(O)C(=O)CCl` [mometasone]: the mCherry in assay [1] was found to be 86.2%. Moreover, the percent effect in assay [2] was 0.849%.

On to `Cc1ncc(C[n+]2csc(CCOP(=O)(O)O)c2C)c(N)n1` [monophosphothiamine], for which, in assay [1], the mCherry stood at 59.5%. Moreover, in assay [2], the percent effect was -2.84%.

In assay [1], `CC(C)OC(=O)CCC/C=C\C[C@@H]1[C@@H](/C=C/C(F)(F)COc2ccccc2)[C@H](O)C[C@@H]1O` [tafluprost] showed a mCherry of 90.3%. Also, the percent effect in assay [2] is -4.62%.

In assay [1], `FC(F)(F)COCC(F)(F)F` came in with a mCherry of 108%. Further, in assay [2], the percent effect was -4.11%.

As to `O=c1ccn([C@@H]2O[C@H](COP(=O)(O)OP(=O)(O)OP(=O)(O)OP(=O)(O)OC[C@H]3O[C@@H](n4ccc(=O)[nH]c4=O)[C@H](O)[C@@H]3O)[C@@H](O)[C@H]2O)c(=O)[nH]1` [diquafosol], in assay [1], the mCherry stood at 101%. In addition, in assay [2], the percent effect is -3.86%.

Regarding `CO[C@@]1(NC(=O)CSCC#N)C(=O)N2C(C(=O)O)=C(CSc3nnnn3C)CS[C@@H]21` [Zefazone], the mCherry in assay [1] came out at 118%. The percent effect in assay [2] is -10.7%.

In assay [1], `O=C1CN(/N=C/c2ccc([N+](=O)[O-])o2)C(=O)N1CO` [nifurtoinol] showed a mCherry of 88%. Besides, the percent effect in assay [2] is -9.34%.

In turn, `Nc1nc2c(ncn2COCCO)c(=O)[nH]1` [Acycloguanosine] came in with a mCherry in assay [1] of 49.4%. Besides, the percent effect in assay [2] was -7.51%.

The molecule `CC(=O)NC(CC(C)C)C(=O)O` (configuration not stated) [acetylleucine] gave a mCherry in assay [1] of 90%. The percent effect in assay [2] stood at 0.455%.

`O=C1c2c(O)cccc2C(C2OC(CO)C(O)C(O)C2O)c2cc(CO)cc(O)c21` (configuration not stated) registered a mCherry in assay [1] of 94.8%. In addition, the percent effect in assay [2] came out at 0.705%.

Regarding `Cn1ccnc1S` [thiamazole], the mCherry in assay [1] was 75.9% and 90.7%. The percent effect in assay [2] was -5.73% and -2.06%.

Molecule `O=C(N/N=C/c1ccc([N+](=O)[O-])o1)c1ccc(O)cc1` [nifuroxazide] came in with a mCherry in assay [1] of 50.9%. For the same molecule, the percent effect in assay [2] was -7.26%.

For the molecule `C[C@H](N)Cc1ccccc1` [dexamfetamine], in assay [3], the percent viability was found to be 35.4%. Also, the mCherry in assay [1] is 103%. The percent effect in assay [2] came to 4.79%.

Turning to `Cc1ccc(/N=C/N(C)/C=N/c2ccc(C)cc2C)c(C)c1` [Amitraz], the percent viability in assay [3] is 428%. Also, the mCherry in assay [1] was found to be 61%. In assay [2], the percent effect is -3.03%.

`O=C([O-])C(O)C(O)C(O)C(O)C(O)CO.[Na+]` (configuration not stated) returned a mCherry in assay [1] of 97.2%. Moreover, the percent effect in assay [2] was -1.77%.

Turning to `CC[C@]1(O)C[C@@H]2CN(CCc3c([nH]c4ccccc34)[C@@](C(=O)OC)(c3cc4c(cc3OC)N(C)[C@H]3[C@@](O)(C(=O)OC)[C@H](OC(C)=O)[C@]5(CC)C=CCN6CC[C@]43[C@@H]65)C2)C1` [Velban], in assay [1], the mCherry came to 92%. Further, the percent effect in assay [2] was -13%.

On to `Cc1cccc(C)c1NC(=O)C1CCCCN1C` (configuration not stated) [mepivacaine], for which, in assay [1], the mCherry was found to be 105%. In addition, the percent effect in assay [2] is -1.5%.
